Results reported in article PMC6109075, “Characterization of membrane penetration and cytotoxicity of C9orf72-encoding arginine-rich dipeptides” (Scientific Reports, 2018).
No constants are given. Whether binding was seen depends on the method and setting. Some binding calls cover weakened binding; strength is not graded here. Tags and fused reporters may be left off the sequences shown.

Target: T1, HA-tagged (PR)20 peptide
T1 chain: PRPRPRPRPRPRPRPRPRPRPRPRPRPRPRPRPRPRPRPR
Experiment: cross-linking; HA-(PR)20 mixed with 10 mM adenine, adenosine, ribose or ribose-3' phosphate, with or without 10 uM poly-A RNA, 5 min at room temperature; 5 mM DSP for 30 min; SDS-PAGE and Coomassie blue staining; both purified
Details: remark: other sources report otherwise

With PRPRPRPRPRPRPRPRPRPRPRPRPRPRPRPRPRPRPRPR [HA-tagged (PR)20 peptide] the binding was “binds”.
